According to the supplement of paper PMC12819154, “High-throughput peptide-centric local stability assay extends protein–ligand identification to membrane proteins, tissues and bacteria” (Nature Structural & Molecular Biology, 2025):
The list shows a part of the results. Small differences around the control level are noise.

Chains of the proteins cited; added tags and fusions are not shown. Lines headed by an entry give the natural chain unless they say otherwise; changes in a name come on top.
UniProt P53634: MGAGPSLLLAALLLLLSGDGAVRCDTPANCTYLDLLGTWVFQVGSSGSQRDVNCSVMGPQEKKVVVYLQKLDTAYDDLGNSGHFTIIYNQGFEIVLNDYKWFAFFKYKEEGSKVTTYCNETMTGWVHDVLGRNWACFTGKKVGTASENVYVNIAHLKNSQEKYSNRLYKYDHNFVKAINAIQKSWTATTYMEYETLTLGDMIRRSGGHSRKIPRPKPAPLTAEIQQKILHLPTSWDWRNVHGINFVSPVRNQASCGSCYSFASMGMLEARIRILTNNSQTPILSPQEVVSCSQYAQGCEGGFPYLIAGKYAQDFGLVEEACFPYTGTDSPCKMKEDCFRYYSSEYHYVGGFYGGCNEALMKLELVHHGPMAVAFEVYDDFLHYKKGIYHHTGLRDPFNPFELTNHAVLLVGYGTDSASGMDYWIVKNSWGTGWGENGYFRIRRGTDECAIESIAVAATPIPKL
UniProt P46459: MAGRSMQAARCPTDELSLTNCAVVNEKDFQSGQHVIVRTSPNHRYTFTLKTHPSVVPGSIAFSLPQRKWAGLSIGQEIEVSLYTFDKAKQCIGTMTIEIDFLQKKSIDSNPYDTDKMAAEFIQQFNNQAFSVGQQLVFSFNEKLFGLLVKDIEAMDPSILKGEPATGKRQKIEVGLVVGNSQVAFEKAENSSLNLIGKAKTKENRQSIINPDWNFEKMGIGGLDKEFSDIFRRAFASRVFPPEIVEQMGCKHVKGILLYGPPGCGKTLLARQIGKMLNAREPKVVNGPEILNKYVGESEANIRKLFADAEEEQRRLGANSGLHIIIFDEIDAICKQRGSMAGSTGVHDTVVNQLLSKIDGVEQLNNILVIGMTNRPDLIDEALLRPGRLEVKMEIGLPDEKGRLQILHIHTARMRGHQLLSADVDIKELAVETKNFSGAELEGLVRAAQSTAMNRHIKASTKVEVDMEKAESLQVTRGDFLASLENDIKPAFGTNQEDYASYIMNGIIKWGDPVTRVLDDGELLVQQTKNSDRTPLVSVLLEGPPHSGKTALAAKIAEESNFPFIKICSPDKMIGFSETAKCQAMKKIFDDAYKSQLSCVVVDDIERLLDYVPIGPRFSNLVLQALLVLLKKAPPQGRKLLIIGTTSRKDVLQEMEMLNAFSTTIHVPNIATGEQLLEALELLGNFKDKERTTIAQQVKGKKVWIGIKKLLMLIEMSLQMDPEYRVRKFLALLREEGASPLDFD
UniProt P53677: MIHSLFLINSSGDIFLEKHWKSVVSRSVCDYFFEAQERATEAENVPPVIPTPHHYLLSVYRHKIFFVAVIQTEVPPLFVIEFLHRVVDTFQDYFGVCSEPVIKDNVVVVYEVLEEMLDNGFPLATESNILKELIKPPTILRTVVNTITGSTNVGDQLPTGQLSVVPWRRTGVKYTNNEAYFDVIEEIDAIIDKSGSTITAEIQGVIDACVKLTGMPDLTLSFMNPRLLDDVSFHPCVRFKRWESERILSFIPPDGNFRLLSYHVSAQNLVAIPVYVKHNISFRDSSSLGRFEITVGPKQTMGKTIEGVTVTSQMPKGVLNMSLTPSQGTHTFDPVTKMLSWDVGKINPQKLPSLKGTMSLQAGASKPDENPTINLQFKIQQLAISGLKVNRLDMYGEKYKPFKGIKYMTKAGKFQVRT
UniProt P46199: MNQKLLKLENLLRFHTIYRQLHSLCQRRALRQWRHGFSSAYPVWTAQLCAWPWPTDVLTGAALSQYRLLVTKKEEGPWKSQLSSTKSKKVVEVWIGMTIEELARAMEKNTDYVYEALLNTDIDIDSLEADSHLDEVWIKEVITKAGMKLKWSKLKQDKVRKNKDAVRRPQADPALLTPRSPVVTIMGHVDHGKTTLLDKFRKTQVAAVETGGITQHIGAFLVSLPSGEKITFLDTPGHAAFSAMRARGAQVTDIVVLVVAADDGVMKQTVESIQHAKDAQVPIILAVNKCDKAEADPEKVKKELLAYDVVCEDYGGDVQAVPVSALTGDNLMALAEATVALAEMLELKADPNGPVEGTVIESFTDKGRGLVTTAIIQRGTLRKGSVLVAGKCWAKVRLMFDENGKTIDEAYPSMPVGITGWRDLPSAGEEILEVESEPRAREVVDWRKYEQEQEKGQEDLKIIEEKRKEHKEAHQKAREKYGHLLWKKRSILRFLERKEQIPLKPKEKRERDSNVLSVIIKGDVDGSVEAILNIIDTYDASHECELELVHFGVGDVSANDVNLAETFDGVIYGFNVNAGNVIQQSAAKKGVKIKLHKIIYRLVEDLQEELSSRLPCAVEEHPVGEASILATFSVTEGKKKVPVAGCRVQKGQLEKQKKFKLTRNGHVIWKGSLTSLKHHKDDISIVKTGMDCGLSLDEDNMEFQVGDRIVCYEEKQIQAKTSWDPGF
UniProt P48960: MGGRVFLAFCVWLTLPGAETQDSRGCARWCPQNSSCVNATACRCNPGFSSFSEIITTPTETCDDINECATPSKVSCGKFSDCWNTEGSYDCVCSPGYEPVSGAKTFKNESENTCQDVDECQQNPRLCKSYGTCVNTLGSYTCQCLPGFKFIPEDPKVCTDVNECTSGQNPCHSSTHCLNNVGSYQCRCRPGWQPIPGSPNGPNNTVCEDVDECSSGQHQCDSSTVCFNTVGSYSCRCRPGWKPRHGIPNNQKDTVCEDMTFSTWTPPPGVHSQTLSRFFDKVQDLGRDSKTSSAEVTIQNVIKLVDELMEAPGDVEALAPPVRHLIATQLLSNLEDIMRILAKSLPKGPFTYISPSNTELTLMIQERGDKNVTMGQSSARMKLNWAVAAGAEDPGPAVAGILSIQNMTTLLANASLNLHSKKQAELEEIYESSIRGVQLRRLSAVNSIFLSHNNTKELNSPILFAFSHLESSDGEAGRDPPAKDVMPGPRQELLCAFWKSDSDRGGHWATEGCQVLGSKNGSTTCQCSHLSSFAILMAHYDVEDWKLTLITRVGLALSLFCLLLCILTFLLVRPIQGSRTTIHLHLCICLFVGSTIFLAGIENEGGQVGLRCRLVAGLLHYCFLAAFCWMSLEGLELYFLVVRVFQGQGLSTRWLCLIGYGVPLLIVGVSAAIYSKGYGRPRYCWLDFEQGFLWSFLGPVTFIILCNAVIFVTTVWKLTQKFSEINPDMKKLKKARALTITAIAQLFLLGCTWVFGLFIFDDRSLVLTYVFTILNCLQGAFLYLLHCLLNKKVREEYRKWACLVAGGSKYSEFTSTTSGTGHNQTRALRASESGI
UniProt P49321, whole entry: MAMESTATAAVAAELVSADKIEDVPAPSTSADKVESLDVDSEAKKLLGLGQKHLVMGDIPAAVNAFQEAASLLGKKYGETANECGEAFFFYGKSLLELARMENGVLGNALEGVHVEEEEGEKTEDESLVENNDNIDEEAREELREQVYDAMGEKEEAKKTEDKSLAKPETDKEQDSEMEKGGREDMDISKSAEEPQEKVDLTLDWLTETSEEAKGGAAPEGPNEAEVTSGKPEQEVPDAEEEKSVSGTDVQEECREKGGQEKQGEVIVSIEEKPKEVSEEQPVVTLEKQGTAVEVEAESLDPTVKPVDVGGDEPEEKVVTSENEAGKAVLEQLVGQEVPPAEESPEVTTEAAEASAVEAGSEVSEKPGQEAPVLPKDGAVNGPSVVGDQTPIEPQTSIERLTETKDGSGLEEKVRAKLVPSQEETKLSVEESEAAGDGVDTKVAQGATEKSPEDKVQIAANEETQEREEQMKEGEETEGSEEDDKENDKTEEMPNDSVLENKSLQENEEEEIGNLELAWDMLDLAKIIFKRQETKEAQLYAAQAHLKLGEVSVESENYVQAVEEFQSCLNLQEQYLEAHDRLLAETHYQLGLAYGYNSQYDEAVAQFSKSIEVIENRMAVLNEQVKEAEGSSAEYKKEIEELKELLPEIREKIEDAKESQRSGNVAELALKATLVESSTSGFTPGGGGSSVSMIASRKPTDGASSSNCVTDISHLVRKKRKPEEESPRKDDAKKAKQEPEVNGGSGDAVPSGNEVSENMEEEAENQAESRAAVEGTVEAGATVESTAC
UniProt P52655, whole entry: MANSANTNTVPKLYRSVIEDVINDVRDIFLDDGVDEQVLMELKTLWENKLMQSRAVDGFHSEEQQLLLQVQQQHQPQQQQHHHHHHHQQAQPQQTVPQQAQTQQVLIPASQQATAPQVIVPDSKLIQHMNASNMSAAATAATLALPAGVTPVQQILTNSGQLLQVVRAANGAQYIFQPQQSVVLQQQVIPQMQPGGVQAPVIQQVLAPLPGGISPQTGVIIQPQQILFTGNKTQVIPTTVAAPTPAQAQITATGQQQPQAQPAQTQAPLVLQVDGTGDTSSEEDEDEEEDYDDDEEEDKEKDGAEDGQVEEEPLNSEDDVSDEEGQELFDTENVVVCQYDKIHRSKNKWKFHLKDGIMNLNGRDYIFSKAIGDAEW
UniProt P49917: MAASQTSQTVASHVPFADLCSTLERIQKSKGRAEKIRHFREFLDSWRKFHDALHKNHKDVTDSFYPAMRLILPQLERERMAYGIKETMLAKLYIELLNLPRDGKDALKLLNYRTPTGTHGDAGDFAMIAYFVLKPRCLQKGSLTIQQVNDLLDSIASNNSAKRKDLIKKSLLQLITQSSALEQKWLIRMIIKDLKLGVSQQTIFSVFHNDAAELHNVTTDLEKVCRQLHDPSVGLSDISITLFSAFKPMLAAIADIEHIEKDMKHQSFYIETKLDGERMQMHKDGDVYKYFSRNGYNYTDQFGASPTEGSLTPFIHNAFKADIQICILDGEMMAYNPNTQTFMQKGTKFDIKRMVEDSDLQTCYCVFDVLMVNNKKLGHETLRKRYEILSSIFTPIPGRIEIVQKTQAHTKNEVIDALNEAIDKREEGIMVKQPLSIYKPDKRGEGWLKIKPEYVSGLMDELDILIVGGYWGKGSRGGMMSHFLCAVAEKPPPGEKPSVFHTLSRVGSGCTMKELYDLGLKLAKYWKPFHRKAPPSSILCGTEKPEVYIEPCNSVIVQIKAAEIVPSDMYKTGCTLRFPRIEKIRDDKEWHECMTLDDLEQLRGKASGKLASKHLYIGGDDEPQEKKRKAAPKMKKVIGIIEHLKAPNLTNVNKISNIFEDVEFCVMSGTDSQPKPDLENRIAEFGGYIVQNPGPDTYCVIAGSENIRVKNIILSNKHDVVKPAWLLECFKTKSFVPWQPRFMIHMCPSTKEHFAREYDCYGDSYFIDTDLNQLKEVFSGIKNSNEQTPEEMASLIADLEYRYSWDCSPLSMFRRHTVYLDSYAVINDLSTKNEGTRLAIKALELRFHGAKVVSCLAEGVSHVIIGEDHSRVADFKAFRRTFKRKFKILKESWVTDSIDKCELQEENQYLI
UniProt P53597: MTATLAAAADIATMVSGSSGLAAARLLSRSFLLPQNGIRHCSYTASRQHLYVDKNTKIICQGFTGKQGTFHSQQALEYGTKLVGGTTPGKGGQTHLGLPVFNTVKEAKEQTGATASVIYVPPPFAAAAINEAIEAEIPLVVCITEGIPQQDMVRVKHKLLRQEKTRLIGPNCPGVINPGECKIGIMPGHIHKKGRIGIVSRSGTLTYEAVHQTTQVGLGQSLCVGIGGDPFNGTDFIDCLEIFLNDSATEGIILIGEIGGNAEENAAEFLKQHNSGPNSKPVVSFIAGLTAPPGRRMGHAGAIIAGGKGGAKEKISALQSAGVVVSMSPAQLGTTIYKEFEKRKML
UniProt P51858: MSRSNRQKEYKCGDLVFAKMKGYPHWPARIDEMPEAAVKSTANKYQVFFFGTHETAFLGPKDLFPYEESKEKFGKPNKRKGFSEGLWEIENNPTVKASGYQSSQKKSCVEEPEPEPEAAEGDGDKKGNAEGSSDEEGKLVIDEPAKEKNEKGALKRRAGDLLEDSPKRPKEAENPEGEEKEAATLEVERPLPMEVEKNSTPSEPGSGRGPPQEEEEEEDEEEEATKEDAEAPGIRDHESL
UniProt P51659: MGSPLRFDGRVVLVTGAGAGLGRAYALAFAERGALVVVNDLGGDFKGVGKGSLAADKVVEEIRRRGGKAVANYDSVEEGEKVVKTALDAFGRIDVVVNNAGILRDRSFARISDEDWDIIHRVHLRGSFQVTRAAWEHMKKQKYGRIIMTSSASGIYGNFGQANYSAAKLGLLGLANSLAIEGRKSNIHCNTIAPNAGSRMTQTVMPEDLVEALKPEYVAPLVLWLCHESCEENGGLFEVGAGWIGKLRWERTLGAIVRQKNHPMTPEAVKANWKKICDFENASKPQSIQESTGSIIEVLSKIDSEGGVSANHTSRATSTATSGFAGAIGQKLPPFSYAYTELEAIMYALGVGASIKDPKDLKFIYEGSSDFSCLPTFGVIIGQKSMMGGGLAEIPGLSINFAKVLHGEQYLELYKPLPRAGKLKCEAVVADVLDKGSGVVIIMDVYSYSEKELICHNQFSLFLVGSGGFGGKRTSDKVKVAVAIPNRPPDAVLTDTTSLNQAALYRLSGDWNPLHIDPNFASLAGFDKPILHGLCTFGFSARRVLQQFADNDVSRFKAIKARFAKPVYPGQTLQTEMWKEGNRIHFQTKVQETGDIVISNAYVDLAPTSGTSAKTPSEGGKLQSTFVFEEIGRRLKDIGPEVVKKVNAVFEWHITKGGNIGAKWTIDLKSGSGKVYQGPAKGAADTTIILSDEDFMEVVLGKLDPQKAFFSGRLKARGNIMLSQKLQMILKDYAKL

Compound: CN[C@@H]1C[C@H]2O[C@@](C)([C@@H]1OC)n1c3ccccc3c3c4c(c5c6ccccc6n2c5c31)C(=O)NC4 [staurosporine]
Assay: log2 fold change of tryptic peptide abundance, ligand vs vehicle (limited proteolysis) (log2 ratio); higher = more trypsin-susceptible (destabilized)
Conditions: ligand concentration: 20 uM; sample: K562 cleared lysate; digestion: 4 min, 22 C (HT-PELSA RT4min, Orbitrap Astral)

| Target | log2 fold change |
| --- | --- |
| CTSC (peptide sequence: MKEDCFR, peptide start residue: 333) (UniProt P53634) | -0.518 |
| CLK2 (peptide sequence: RYHSSERGSR, peptide start residue: 6) (UniProt P49760) | 0.016 |
| RAB5C (peptide sequence: GVDLQENNPASR, peptide start residue: 199) (UniProt P51148) | -0.0601 |
| NSF (peptide sequence: TTIAQQVK, peptide start residue: 692) (UniProt P46459) | -0.203 |
| AP3M2 (peptide sequence: ELIKPPTILR, peptide start residue: 132) (UniProt P53677) | 0.0916 |
| GNPDA1 (peptide sequence: GLMLVHNK, peptide start residue: 257) (UniProt P46926) | 0.625 |
| MTIF2 (peptide sequence: DAQVPIILAVNKCDKAEADPEK, peptide start residue: 278) (UniProt P46199) | 0.474 |
| NUMB (peptide sequence: ECGVTATFDASR, peptide start residue: 175) (UniProt P49757) | -0.261 |
| ALDH18A1 (peptide sequence: KVGTFFSEVKPAGPTVEQQGEMAR, peptide start residue: 348) (UniProt P54886) | 0.464 |
| CCNH (peptide sequence: LLEFCSVFKPAMPR, peptide start residue: 64) (UniProt P51946) | -0.291 |
| CD97 (peptide sequence: YSEFTSTTSGTGHNQTR, peptide start residue: 810) (UniProt P48960) | -0.124 |
| UniProt P50120 (peptide sequence: KIAVRLTQTK, peptide start residue: 32) | 0.245 |
| SMARCA4 (peptide sequence: AIEEGTLEEIEEEVRQK, peptide start residue: 1391) (UniProt P51532) | 0.562 |
| NASP (peptide sequence: VESLDVDSEAKK, peptide start residue: 34) (UniProt P49321) | -0.239 |
| VAMP7 (peptide sequence: GLDKVMETQAQVDELK, peptide start residue: 122) (UniProt P51809) | -0.294 |
| HIRA (peptide sequence: GLTWDPVGK, peptide start residue: 179) (UniProt P54198) | 0.354 |
| METAP1 (peptide sequence: LFHTAPNVPHYAK, peptide start residue: 299) (UniProt P53582) | -0.201 |
| GTF2A1 (peptide sequence: SVIEDVINDVR, peptide start residue: 16) (UniProt P52655) | -0.314 |
| FXR2 (peptide sequence: RASLLGDMHFR, peptide start residue: 190) (UniProt P51116) | -0.581 |
| NDUFA8 (peptide sequence: TDRPLPENPYHSR, peptide start residue: 133) (UniProt P51970) | -0.18 |
| KPNA2 (peptide sequence: NKNPAPPIDAVEQILPTLVR, peptide start residue: 239) (UniProt P52292) | -0.304 |
| ATXN3 (peptide sequence: REAYFEK, peptide start residue: 285) (UniProt P54252) | 0.55 |
| ERF (peptide sequence: VRGEGPGEAGGPLTPR, peptide start residue: 513) (UniProt P50548) | -0.328 |

Fetched one by one from the entries so far:

| Target | log2 fold change |
| --- | --- |
| AP3M2 (peptide sequence: ELIKPPTILR, peptide start residue: 132) (UniProt P53677) | 0.0916 |
| NUMB (peptide sequence: ECGVTATFDASR, peptide start residue: 175) (UniProt P49757) | -0.261 |

Later entries:

| Target | log2 fold change |
| --- | --- |
| LIG4 (peptide sequence: HLYIGGDDEPQEKK, peptide start residue: 614) (UniProt P49917) | 0.823 |
| CCT3 (peptide sequence: GESQTDIEITR, peptide start residue: 250) (UniProt P49368) | -0.23 |
| ARFIP2 (peptide sequence: KYESVLQLGR, peptide start residue: 139) (UniProt P53365) | 0.195 |
| BRCA2 (peptide sequence: SVVCGSLFHTPK, peptide start residue: 158) (UniProt P51587) | -0.606 |
| UniProt P48729 (peptide sequence: QHIPYREDKNLTGTAR, peptide start residue: 171) | 0.181 |
| IREB2 (peptide sequence: SDFQACLNEK, peptide start residue: 462) (UniProt P48200) | -0.714 |
| SUCLG1 (peptide sequence: QHLYVDKNTK, peptide start residue: 48) (UniProt P53597) | 0.596 |
| UniProt P52564 (peptide sequence: ATVNSQEQKR, peptide start residue: 97) | -1.02 |
| LSS (peptide sequence: WYVDGPASTAFQEHVSR, peptide start residue: 348) (UniProt P48449) | -0.379 |
| HDGF (peptide sequence: MKGYPHWPARIDEMPEAAVK, peptide start residue: 20) (UniProt P51858) | 0.367 |
| UniProt P47813 (peptide sequence: MLGNGRLEAMCFDGVK, peptide start residue: 41) | -0.142 |
| NR2C2 (peptide sequence: HYGAVSCEGCK, peptide start residue: 128) (UniProt P49116) | -0.988 |
| CDKN1B (peptide sequence: TDPSDSQTGLAEQCAGIR, peptide start residue: 135) (UniProt P46527) | -0.155 |
| DHPS (peptide sequence: KLEPLSQDEDQHADLTQSR, peptide start residue: 73) (UniProt P49366) | 0.662 |
| SMTN (peptide sequence: AGSLAALEKR, peptide start residue: 732) (UniProt P53814) | 0.563 |
| PEX5 (peptide sequence: ELFLAAVR, peptide start residue: 473) (UniProt P50542) | -0.0879 |
| VASP (peptide sequence: TPKDESANQEEPEAR, peptide start residue: 284) (UniProt P50552) | -0.156 |
| UniProt P52758 (peptide sequence: AAYQVAALPK, peptide start residue: 108) | -0.051 |
| PPT1 (peptide sequence: TLNAGAYSK, peptide start residue: 166) (UniProt P50897) | 0.218 |
| SERPINH1 (peptide sequence: TDGALLVNAMFFKPHWDEK, peptide start residue: 195) (UniProt P50454) | -0.198 |
| PPM1F (peptide sequence: QWLVSIHAIR, peptide start residue: 154) (UniProt P49593) | -0.145 |
| HSD17B4 (peptide sequence: QKNHPMTPEAVK, peptide start residue: 259) (UniProt P51659) | 0.462 |
